Like-named read-outs stand apart in the source and are kept apart here. These are yes or no findings as the source states them, for the method shown. In cells and extracts the contact can be indirect. Here binding means that the protein was enriched with, or labelled near, the bait; the list need not be complete. For some of these results: A no says only that the protein was not detected with the bait. For some of these results: Sequences can lack the tags named with a protein.
Tests used:
Assay in all cases: affinity purification with mass spectrometry; 5 nmol GST-fused kinase fragment immobilised on a 250 µl glutathione-sepharose column; rat brain cytosol or P2 fraction loaded; washed with buffer A (20 mM Tris/HCl pH 7.5, 1 mM EDTA, 1 mM DTT) and buffer A with 50 mM NaCl; 1 M NaCl eluate digested with trypsin, LC-MS/MS, Mascot; only the target purified
[1] = target: GST-Rho-kinase-cat (active catalytic fragment of Rho-kinase/ROCK/ROK, 6-553 amino acids) (UniProt Q28021)
[2] = target: GST-PKN-cat (581-942 amino acids) (UniProt Q16512)
[3] = target: T1, GST-Rho-kinase-cat-KD (kinase-deficient mutant of Rho-kinase-cat, Lys121 replaced by Gly) (UniProt Q28021)
T1 sequence: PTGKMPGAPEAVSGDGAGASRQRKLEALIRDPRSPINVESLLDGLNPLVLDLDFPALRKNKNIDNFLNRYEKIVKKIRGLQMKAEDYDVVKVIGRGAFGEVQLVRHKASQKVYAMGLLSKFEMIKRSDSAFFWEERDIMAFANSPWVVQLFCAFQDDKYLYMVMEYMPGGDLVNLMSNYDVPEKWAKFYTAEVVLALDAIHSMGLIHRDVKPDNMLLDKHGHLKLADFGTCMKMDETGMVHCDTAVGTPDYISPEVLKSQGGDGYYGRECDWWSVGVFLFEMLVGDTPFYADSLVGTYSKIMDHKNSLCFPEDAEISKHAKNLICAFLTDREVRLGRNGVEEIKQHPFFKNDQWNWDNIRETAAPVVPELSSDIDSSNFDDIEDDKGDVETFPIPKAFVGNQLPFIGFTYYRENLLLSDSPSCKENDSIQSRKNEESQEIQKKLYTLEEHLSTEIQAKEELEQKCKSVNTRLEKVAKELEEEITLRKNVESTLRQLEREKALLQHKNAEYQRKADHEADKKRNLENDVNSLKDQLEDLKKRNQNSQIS

Chains of the proteins cited; added tags and fusions are not shown. Residues count along the entry.
UniProt Q16512, residues 581-942: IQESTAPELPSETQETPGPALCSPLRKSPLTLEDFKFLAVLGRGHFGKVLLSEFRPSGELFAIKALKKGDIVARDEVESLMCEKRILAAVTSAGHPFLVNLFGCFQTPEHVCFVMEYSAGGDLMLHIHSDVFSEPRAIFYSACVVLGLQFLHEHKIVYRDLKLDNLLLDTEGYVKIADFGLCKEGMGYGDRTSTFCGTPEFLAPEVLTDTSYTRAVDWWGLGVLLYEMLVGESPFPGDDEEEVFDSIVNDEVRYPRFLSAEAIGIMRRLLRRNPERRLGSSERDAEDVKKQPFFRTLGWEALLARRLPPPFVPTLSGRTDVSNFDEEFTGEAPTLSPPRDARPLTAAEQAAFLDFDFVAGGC
UniProt P08592, residues 18-770: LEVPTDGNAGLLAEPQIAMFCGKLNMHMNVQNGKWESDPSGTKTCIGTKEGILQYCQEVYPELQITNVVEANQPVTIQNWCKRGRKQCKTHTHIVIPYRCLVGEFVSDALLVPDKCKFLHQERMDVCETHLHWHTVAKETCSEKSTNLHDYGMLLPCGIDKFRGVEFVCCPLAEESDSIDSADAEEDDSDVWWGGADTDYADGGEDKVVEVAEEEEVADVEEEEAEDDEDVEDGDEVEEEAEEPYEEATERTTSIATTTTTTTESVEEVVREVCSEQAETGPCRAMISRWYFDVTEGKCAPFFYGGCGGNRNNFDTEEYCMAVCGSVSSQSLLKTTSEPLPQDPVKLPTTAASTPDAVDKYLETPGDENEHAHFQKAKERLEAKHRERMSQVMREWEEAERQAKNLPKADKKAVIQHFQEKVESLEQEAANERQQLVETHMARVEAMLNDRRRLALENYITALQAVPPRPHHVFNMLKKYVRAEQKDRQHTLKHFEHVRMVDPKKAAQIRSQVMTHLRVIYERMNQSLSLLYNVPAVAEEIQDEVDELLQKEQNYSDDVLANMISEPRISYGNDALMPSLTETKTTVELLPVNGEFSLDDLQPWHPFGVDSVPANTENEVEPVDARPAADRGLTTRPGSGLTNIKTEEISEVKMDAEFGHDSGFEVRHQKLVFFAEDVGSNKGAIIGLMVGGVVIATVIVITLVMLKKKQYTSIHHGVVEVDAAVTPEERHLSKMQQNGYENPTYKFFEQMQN
UniProt P19332: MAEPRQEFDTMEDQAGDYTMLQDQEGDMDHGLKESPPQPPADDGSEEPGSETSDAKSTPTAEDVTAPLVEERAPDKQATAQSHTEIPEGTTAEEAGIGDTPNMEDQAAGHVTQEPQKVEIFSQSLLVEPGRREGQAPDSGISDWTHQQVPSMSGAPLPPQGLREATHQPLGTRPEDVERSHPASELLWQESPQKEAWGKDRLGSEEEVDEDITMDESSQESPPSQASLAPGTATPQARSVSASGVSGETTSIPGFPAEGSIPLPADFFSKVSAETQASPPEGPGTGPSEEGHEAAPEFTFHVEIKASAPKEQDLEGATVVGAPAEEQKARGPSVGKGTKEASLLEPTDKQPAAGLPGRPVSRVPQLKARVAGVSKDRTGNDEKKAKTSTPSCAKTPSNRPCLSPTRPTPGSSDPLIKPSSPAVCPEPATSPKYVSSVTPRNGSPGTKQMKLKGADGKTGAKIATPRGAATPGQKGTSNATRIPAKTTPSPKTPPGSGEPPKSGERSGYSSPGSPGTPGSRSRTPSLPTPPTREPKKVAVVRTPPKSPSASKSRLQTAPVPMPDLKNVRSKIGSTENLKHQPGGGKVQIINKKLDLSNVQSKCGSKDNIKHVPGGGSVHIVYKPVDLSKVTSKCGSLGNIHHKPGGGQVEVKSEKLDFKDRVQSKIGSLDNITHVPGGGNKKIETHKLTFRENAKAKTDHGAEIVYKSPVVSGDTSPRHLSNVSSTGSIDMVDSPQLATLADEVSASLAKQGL
UniProt P29476: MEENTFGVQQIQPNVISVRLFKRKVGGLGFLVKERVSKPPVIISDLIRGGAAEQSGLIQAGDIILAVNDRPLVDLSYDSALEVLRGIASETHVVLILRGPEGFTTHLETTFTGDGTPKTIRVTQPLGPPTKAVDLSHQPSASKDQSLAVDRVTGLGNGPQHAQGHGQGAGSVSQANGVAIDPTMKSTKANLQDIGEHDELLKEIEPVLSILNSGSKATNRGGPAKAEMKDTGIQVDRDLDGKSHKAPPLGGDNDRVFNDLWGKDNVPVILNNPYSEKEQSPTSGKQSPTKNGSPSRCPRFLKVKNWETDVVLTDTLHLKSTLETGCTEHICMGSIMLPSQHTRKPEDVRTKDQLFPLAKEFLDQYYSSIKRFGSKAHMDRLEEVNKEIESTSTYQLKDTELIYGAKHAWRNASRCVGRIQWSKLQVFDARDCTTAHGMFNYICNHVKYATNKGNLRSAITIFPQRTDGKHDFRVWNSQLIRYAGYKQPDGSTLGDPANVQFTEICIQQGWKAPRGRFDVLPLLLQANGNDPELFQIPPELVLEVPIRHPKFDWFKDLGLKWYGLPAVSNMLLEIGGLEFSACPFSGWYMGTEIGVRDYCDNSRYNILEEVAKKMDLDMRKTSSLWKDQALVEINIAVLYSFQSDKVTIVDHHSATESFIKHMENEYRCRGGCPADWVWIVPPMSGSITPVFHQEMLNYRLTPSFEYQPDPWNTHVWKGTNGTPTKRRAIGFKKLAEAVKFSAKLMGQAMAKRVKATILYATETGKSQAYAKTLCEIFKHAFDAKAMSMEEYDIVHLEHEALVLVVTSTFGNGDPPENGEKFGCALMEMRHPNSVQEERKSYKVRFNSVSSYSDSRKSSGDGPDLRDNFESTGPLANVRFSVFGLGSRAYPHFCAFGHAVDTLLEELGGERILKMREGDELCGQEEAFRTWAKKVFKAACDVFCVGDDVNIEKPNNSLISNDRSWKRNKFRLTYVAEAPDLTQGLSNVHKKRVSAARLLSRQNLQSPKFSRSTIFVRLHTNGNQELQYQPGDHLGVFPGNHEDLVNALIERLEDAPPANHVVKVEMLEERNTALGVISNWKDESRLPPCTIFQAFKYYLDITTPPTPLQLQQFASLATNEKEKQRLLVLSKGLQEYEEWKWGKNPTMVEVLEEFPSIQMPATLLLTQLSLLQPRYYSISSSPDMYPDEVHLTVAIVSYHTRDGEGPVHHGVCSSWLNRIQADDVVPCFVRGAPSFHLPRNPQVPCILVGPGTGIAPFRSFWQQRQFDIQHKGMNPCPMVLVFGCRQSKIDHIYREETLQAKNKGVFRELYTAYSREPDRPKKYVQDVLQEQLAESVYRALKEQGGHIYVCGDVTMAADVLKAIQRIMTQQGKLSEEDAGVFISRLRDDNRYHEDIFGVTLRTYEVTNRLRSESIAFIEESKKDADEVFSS

[4] = target: T1, GST-Rho-kinase-cat-KD (kinase-deficient mutant of Rho-kinase-cat, Lys121 replaced by Gly); remark: listed apart in the source
[5] = target: GST-Rho-kinase-cat (active catalytic fragment of Rho-kinase/ROCK/ROK, 6-553 amino acids) (UniProt Q28021); remark: listed apart in the source
[6] = target: GST-PKN-cat (581-942 amino acids) (UniProt Q16512); remark: listed apart in the source

With “amyloid precursor protein (APP) (from UniProt P08592 18-770)” the binding [1] was “binds” and the binding [2] was “binds weakly”.

Tau (from UniProt P19332 1-752) was tested, and the binding [1] was “binds” and the binding [2] was “binds”.

With nNOS (from UniProt P29476 1-1429) the binding [3] was “no binding” and the binding [1] was “binds”.

For “brain spectrin (rat (endogenous in rat brain))”, the binding [3] was “no binding”.

B1: MYPT1 (protein, UniProt Q10728 1-1032)
chain: MKMADAKQKRNEQLKRWIGSETDLEPPVVKRQKTKVKFDDGAVFLAACSSGDTDEVLKLLHRGADINYANVDGLTALHQACIDDNVDMVKFLVENGANINQPDNEGWIPLHAAASCGYLDIAEFLIGQGAHVGAVNSEGDTPLDIAEEEAMEELLQNEVNRQGVDIEAARKEEERIMLRDARQWLNSGHISDVRHAKSGGTALHVAAAKGYTEVLKLLIQAGYDVNIKDYDGWTPLHAAAHWGKEEACRILVDNLCDMETVNKVGQTAFDVADEDILGYLEELQKKQNLLHSEKRDKKSPLIESTANMENNQPQKTFKNKETLIIEPEKNASRIESLEQEKADEEEEGKKDESSCSSEEDEEDDSESEAETDKTKPMASVTNAHTASTQAAPAAVTTPTLSSNQGTPTSPVKKFPTSTTKISPKEEERKDESPASWRLGLRKTGSYGALAEITASKEAQKEKDTAGVIRSASSPRLSSSLDNKEKEKDNKGTRLAYVAPTIPRRLGSTSDIEEKENRESSNLRTSSSYTRRKWEDDLKKNSSINEGSTYHRSCSFGRRQDDLISCSVPSTTSTPTVTSAAGLQKSFLSSTSTTAKTPPGSSPAGTQSSTSNRLWAEDSTEKEKDSAPTAATILVAPTVVSAAASSTTALTTTTAGTLSSTSEVRERRRSYLTPVRDEESESQRKARSRQARQSRRSTQGVTLTDLQEAEKTIGRSRSTRTREQENEEKDKEEKEKQDKEKQEEKKESEVSREDEYKQKYSRTYDETYARYRPVSTSSSSTPSSSSLSTLGSSLYASSQLNRPNSLVGITSAYSRGLTKDNEREGEKKEEEKEGEDKSQPKSIRERRRPREKRRSTGVSFWTQDSDENEQERQSDTEDGSSKRDTQTDSVSRYDSSSTSSSDRYDSLLGRSASYSYLEERKPYGSRLEKDDSTDFKKLYEQILAENEKLKAQLHDTNMELTDLKLQLEKATQRQERFADRSLLEMEKRERRALERRISEMEEELKMLPDLKADNQRLKDENGALIRVISKLSK
For B1, the binding [4] was “binds”, the binding [5] was “binds” and the binding [6] was “binds weakly”.

B2: AP180 (protein, UniProt Q05140 1-915)
chain: MSGQTLTDRIAAAQYSVTGSAVARAVCKATTHEVMGPKKKHLDYLIQATNETNVNIPQMADTLFERATNSSWVVVFKALVTTHHLMVHGNERFIQYLASRNTLFNLSNFLDKSGSHGYDMSTFIRRYSRYLNEKAFSYRQMAFDFARVKKGADGVMRTMVPEKLLKSMPILQGQIDALLEFDVHPNELTNGVINAAFMLLFKDLIKLFACYNDGVINLLEKFFEMKKGQCKDALEIYKRFLTRMTRVSEFLKVADEVGIDKGDIPDLTQAPSSLMETLEQHLNTLEGKKPGNNEGSGAPSPLSKSSPATTVTSPNSTPAKTIDTSPPVDIFATASAAAPVSSAKPSSDLLDLQPDFSGARAGAAAPVPPPTGGATAWGDLLGEDSLAALSSVPSEAPISDPFAPEPSPPTTTTEPASASASATTAVTAATTEVDLFGDAFAASPGEAPAASEGATAPATPAPVAAALDACSGNDPFAPSEGSAEAAPELDLFAMKPPETSAPVVTPTASTAPPVPATAPSPAPTAVAATAATTTAAAAATTTATTSAAAATTAAAPPALDIFGDLFDSAPEVAAASKPDVAPSIDLFGTDAFSSPPRGASPVPESSLTADLLSGSGFHCAEDDRHVPLFFTAVDAFAAPSPASTASPAKAESSGVIDLFGDAFGSSASETQPAPQAVSSSSASADLLAGFGGSFMAPSTTPVTPAQNNLLQPNFEAAFGTTPSTSSSSSFDPSGDLLMPTMAPSGQPAPVSMVPPSPAMSASKGLGSDLDSSLASLVGNLGISGTTSKKGDLQWNAGEKKLTGGANWQPKVTPATWSAGVPPQGTVPPTSSVPPGAGAPSVGQPGAGYGMPPAGTGMTMMPQQPVMFAQPMMRPPFGAAAVPGTQLSPSPTPATQSPKKPPAKDPLADLNIKDFL
For B2, the binding [6] was “binds weakly”.

B3: Doublecortin (DCX) (protein, UniProt Q9ESI7 1-365)
chain: MELDFGHFDERDKASRNMRGSRMNGLPSPTHSAHCSFYRTRTLQALSNEKKAKKVRFYRNGDRYFKGIVYAVSSDRFRSFDALLADLTRSLSDNINLLQGVRYIYTIDGSRKIGSMDELEEGESYVCSSDNFFKKVEYTKNVNPNWSVNVKTSANMKAPQSLASSNSAQARENKDFVRPKLVTIIRSGVKPRKAVRVLLNKKTAHSFEQVLTDITEAIKLETGVVKKLYTLDGKQVTCLHDFFGDDDVFIACGPEKFRYAQDDFSLDENECRVMKGNPSATAGPKASPTPQKTSAKSPGPMRRSKSPADSGNDQDANGTSSSQLSTPKSKQSPISTPTSPGSLRKHKDLYLPLSLDDSDSLGDSM
With B3 the binding [5] was “binds” and the binding [6] was “binds”.

Source: article PMC2806833
